Measurements: paper PMC7303132
No constants are given. Whether binding was seen depends on the method and setting. For some assays here: In cells and extracts the contact can be indirect. For some assays here: Sequences can lack the tags named with a protein.

T1: Proline-rich protein PRR19 (mouse (endogenous in testis)) (UniProt B2RW88)
T1 sequence: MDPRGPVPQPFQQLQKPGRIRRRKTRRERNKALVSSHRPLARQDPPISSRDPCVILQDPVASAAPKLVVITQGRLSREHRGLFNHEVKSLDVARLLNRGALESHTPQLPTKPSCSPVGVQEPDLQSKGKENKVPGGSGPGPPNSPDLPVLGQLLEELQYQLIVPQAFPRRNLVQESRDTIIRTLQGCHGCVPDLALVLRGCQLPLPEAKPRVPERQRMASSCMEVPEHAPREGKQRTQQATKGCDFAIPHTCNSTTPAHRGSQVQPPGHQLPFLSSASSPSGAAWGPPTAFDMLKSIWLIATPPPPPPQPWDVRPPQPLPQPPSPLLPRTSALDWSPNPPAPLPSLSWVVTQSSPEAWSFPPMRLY

T2: PRR19 (yeast two-hybrid fusion) (mouse) (UniProt B2RW88)
T2 sequence: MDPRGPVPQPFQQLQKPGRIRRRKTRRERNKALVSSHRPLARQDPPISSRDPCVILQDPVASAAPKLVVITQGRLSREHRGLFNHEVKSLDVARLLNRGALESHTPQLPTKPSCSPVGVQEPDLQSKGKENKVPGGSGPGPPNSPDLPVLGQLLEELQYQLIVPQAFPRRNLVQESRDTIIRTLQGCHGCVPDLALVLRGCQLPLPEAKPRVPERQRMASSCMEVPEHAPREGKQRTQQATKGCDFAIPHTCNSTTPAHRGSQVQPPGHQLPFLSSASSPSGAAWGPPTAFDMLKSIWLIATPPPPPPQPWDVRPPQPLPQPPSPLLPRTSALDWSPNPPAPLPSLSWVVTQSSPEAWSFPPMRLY


Experiments:
[1] = target: T1, Proline-rich protein PRR19 (mouse (endogenous in testis)); assay: co-IP; mouse testis extracts (50 mM Tris-HCl pH 7.5, 150 mM NaCl, 0.5% Triton X-100, diluted two times); guinea pig anti-PRR19, anti-CNTD1 or IgG crosslinked to Dynabeads Protein A, overnight at 4 °C; immunoblot
[2] = target: T2, PRR19 (yeast two-hybrid fusion) (mouse); assay: two-hybrid; pairwise, Y2HGold yeast strain, Gal4-BD and Gal4-AD vectors; growth 2-3 days on (-Leu, -Trp, -His, -Ade) plates

Row | binding [1] | binding [2] | Binder
1 | no binding |  | HEI10 ubiquitin ligase (protein, UniProt D3Z3K2 1-276) MSLCEDMLLCNYRKCRIKLSGYAWVTACSHIFCDQHGSGEFSRSPAICPACNSTLSGKLDIVRTELSPSEEYKAMVLAGLRPEVVLDISSRALAFWTYQVHQERLYQEYNFSKAENHLKQMEKMYMQQIQSKNIELTSMKGEVISMKKVLEEYKKKFSDISEKLMERNRQYQKLQGLYDSLRLRNITIASQEGSLEPGMIPQSGVFGFPPGNNSKFSLDHIPVGNQGGGDEDVQFRPFFVCSPTAPEPINNFFSFASPSHEAEQQVCSRAFKAKRI
2 |  | no binding | HEI10 (yeast two-hybrid fusion) (protein, UniProt D3Z3K2 1-276) MSLCEDMLLCNYRKCRIKLSGYAWVTACSHIFCDQHGSGEFSRSPAICPACNSTLSGKLDIVRTELSPSEEYKAMVLAGLRPEVVLDISSRALAFWTYQVHQERLYQEYNFSKAENHLKQMEKMYMQQIQSKNIELTSMKGEVISMKKVLEEYKKKFSDISEKLMERNRQYQKLQGLYDSLRLRNITIASQEGSLEPGMIPQSGVFGFPPGNNSKFSLDHIPVGNQGGGDEDVQFRPFFVCSPTAPEPINNFFSFASPSHEAEQQVCSRAFKAKRI
